From patent US11072588B2, “Barbituric acid derivatives comprising cationic and lipophilic groups” (UNIVERSITETET I TROMSØ—NORGES ARKTISKE UNIVERSITET, priority 2017, dated 2021)

Test system: panel of 30 multi-resistant clinical isolates of Gram-positive and Gram-negative bacteria
Assay: MIC screening, ranges over the panel of clinical isolates
Format: cell-based
Conditions: RBC EC50 / MIC; for SI against S. aurues, E. faecium and E. coli: multi-resistant clinical isolates, range
Protocol: Working solutions of the test derivatives were prepared with up to 100% DMSO and stored at −20° C. If necessary, the solutions were heated to 40-80° C. before testing to facilitate complete dissolution. Double-distilled water was used in all dilutions prepared. […] A microdilution susceptibility test was used for MIC determination according to Clinical and Laboratory Standards Institute, “Methods for Dilution Antimicrobial Sisceptibility Tests for Bacteria That Graw Aerobically”, Approved Standard M07-A9, edition 2012, with modifications as described by Igumnova et al (Bioorg Med Chem, 2016, 24 (22), 5884-5894).
Briefly, the bacterial inoculum was adjusted to approximately 2.5-3×10^4 cells/mL in Mueller-Hinton broth (MHB, Difco Laboratories, USA), and incubated in a ratio of 1:1 with test derivatives in polystyrene 96-well flat-bottom microplates (NUNC, Roskilde, Denmark). Positive growth control (without test derivatives) and negative control (without bacteria) were included. The reference antibiotic was oxytetracycline hydrochloride (Sigma Aldrich, Saint Louis, Mo., USA). The microplates were incubated in an EnVision microplate reader (Perkin-Elmer, Turku, Finland) placed in an incubator set to 35° C. for 48 h. The MIC value was defined as the lowest concentration of derivative resulting in no bacterial growth as determined by OD600 measurement. All derivatives were tested in three parallels.
The MIC was determined as explained above with some exceptions; working solutions of test derivatives were prepared from concentrated DMSO stocks stored at room temperature, the density of the bacterial inoculum was increased 40× to 1-1.2×10^6 cells/mL, enterococci were incubated in Brain Heart Infusion broth (BHIB, Difco Laboratories, USA), the microplates were incubated for 24 h, and the derivatives were tested in four parallels.

Compound: NCCCCN1C(=O)N(CCCCN)C(=O)C(Cc2cc(Br)cc(Br)c2)(Cc2cc(Br)cc(Br)c2)C1=O [7(ii)]
- SI against S. aurues, E. faecium and E. coli: 10-21

Compound: N=C(N)NCCCCN1C(=O)N(CCCCNC(=N)N)C(=O)C(Cc2ccc(F)c3ccccc23)(Cc2ccc(F)c3ccccc23)C1=O [8(v), 1,1′-(4,4′-(5,5-bis((4-fluoronaphthalen-1-yl)methyl)-2,4,6-trioxodihydropyrimidine-1,3(2H,4H)-diyl)bis(butane-4,1-diyl))diguanidine]
- SI against the multi-resistant clinical isolates of S. aureus: 44
- SI against S. aurues, E. faecium and E. coli: 11-44

Compound: CC(C)(C)c1ccc(CC2(Cc3ccc(C(C)(C)C)cc3)C(=O)N(CCCCN)C(=O)N(CCCCN)C2=O)cc1 [Compound 7(i), 1,3-bis(4-aminobutyl)-5,5-bis(4-tertbutylbenzyl) pyrimidin-2,4,6(1H,3H,5H)-trione]
- SI against S. aurues, E. faecium and E. coli: 18-36

Compound: CC(C)(C)c1ccc(CC2(Cc3ccc(C(C)(C)C)cc3)C(=O)N(CCCCNC(=N)N)C(=O)N(CCCCNC(=N)N)C2=O)cc1 [Compound 8(i), 1,1′-(4,4′-(5,5-bis(4-tert-butylbenzyl)-2,4,6-trioxodihydropyrimidine-1,3(2H,4H)-diyl)bis(butane-4,1-diyl))diguanidine]
- SI against S. aurues, E. faecium and E. coli: 19-39
